Measured values taken from PMC11714167.

Sequences of proteins named here, by UniProt entry; tags and fusion partners are left off. Residues count along the entry.
UniProt P30530, residues 26-894: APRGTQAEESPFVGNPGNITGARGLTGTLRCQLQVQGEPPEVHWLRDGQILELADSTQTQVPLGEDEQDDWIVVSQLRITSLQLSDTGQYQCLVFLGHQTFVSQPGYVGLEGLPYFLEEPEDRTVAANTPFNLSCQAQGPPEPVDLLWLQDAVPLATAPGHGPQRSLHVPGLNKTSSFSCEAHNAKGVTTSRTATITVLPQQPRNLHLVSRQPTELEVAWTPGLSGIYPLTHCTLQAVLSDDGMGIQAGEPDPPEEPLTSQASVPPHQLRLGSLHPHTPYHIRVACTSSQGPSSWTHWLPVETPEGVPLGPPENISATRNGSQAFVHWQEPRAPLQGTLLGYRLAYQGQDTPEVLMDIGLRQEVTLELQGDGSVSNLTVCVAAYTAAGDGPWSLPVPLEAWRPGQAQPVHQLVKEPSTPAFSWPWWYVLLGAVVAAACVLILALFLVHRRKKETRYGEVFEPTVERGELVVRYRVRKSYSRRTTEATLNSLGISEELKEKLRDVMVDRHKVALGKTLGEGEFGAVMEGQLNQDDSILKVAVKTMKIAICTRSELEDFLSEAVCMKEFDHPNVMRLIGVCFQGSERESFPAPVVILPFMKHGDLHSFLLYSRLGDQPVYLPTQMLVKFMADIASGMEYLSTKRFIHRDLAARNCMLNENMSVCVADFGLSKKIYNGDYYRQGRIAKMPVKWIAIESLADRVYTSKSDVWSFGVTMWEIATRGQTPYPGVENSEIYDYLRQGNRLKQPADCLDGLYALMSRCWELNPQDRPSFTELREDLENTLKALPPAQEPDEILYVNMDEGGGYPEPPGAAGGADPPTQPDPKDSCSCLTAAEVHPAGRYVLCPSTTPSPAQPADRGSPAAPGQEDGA
UniProt P19474: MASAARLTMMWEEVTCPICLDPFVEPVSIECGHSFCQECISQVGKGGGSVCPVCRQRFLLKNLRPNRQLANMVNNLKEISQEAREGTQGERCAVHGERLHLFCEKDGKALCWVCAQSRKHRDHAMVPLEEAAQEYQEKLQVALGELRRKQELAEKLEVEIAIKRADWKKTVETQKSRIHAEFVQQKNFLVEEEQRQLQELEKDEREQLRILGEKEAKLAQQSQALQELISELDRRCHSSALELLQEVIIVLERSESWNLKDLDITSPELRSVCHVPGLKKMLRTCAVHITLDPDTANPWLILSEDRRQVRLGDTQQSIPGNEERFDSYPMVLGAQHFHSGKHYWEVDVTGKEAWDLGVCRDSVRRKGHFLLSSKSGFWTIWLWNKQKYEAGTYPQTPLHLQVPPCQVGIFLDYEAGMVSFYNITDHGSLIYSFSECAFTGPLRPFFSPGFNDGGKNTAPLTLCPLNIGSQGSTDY
UniProt Q13263: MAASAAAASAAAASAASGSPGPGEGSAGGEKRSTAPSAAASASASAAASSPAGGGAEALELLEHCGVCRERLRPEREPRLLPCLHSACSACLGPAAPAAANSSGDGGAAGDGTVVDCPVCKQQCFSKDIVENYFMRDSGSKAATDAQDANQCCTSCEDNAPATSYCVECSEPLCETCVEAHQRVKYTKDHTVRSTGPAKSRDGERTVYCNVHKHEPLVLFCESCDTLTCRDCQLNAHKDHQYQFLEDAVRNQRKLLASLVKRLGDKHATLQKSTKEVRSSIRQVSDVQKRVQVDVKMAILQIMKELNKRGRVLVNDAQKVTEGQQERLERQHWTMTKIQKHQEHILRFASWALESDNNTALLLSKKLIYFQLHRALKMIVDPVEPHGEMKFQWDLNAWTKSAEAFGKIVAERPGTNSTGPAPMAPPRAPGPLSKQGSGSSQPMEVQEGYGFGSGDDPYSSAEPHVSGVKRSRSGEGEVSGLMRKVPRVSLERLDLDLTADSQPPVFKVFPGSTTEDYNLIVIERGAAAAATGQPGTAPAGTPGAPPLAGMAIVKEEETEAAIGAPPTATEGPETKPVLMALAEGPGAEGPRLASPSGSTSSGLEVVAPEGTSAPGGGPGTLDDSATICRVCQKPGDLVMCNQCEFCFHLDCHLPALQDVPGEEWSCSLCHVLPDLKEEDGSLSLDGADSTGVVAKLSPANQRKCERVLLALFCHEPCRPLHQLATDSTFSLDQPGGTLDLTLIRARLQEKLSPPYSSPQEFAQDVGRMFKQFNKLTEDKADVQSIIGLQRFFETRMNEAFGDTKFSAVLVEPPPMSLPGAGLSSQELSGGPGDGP

Molecular target: AXL (endogenous) (human (endogenous in 786-O, 769-P, Caki-1)) (UniProt P30530)
Test: affinity purification with mass spectrometry; immunoprecipitation from STAMBPL1 KD 786-O cell lysate (AXL immunoprecipitation complex by results and legend; anti-STAMBPL1 or normal rabbit IgG by the methods), protein A/G magnetic beads, SDS-PAGE, Coomassie, in-gel trypsin digestion, nano-UPLC timsTOF Pro2

Substance: TRIM21 (endogenous) (from UniProt P19474 1-475) (enzyme)
- binding: binds

Substance: TRIM28 (endogenous) (from UniProt Q13263 1-835) (enzyme)
- binding: binds

No constants are given. Whether binding was seen depends on the method and setting. Binding seen in cells or lysates may run through a third protein. These calls come from enrichment with a bait or labelling near it, and not all partners need be listed.
